Laboratory results: PubChem BioAssay AID1224830 (NIAID, 2016)
In all, the deposit lists about 18,000 reagents; below is an unselected part. About 2,900 of all reagents (16%) were called active. 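Calls are made per well; low scores hint the gene aids the LPS response, high scores that it dampens it.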 Repeated entries: four replicate wells of each siRNA pool.

Aim: 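Genes whose knock-down alters the TNF-alpha reporter response to LPS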 (primary screen)
Cells: human THP-1 monocytic leukaemia cells, TNF dual-luciferase reporter clone, PMA-differentiated to macrophage-like cells
Reagent: siRNA pool against human genes, 50 nM
Duration: LPS for 4 h, given about 3 days after siRNA transfection
Conditions: bacterial LPS (TLR4 ligand), 10 ng/ml
Measured: 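TNF firefly reporter luminescence divided by renilla, normalised to the plate median, then turned into a robust z-score for each replicate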
Direction: TNF reporter robust z-score: higher = stronger TNF reporter response to LPS
Hit rule: 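Each well counts as active if its z-score is over 2.8 or under -1.5; controls are left without a call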

gene | TNF reporter robust z-score | outcome
PALB2 (GeneID 79728) | -1.08 | inactive
PALB2 (GeneID 79728) | -0.92 | inactive
PALB2 (GeneID 79728) | -1.4 | inactive
PALB2 (GeneID 79728) | -1.04 | inactive
SIGLECL1 (GeneID 284369) | 1.13 | inactive
SIGLECL1 (GeneID 284369) | 1.41 | inactive
SIGLECL1 (GeneID 284369) | 1.3 | inactive
SIGLECL1 (GeneID 284369) | 1.81 | inactive
MORC2 (GeneID 22880) | 1.7 | inactive
MORC2 (GeneID 22880) | 0.24 | inactive
MORC2 (GeneID 22880) | 0.11 | inactive
MORC2 (GeneID 22880) | 1.52 | inactive
MMP1 (GeneID 4312) | -0.27 | inactive
MMP1 (GeneID 4312) | 0.35 | inactive
MMP1 (GeneID 4312) | -1.17 | inactive
MMP1 (GeneID 4312) | -0.64 | inactive
OR10R2 (GeneID 343406) | 0.1 | inactive
OR10R2 (GeneID 343406) | 0.17 | inactive
OR10R2 (GeneID 343406) | 0.57 | inactive
OR10R2 (GeneID 343406) | -0.12 | inactive
OR7A10 (GeneID 390892) | -0.33 | inactive
OR7A10 (GeneID 390892) | 0.19 | inactive
OR7A10 (GeneID 390892) | 0.3 | inactive
OR7A10 (GeneID 390892) | -0.49 | inactive
CA6 (GeneID 765) | -1.53 | active
CA6 (GeneID 765) | 0.53 | inactive
CA6 (GeneID 765) | 0.29 | inactive
CA6 (GeneID 765) | 0.72 | inactive
PDHA1 (GeneID 5160) | -1.25 | inactive
PDHA1 (GeneID 5160) | -0.25 | inactive
PDHA1 (GeneID 5160) | -1.1 | inactive
PDHA1 (GeneID 5160) | -0.67 | inactive
PILRA (GeneID 29992) | -0.28 | inactive
PILRA (GeneID 29992) | 0.18 | inactive
PILRA (GeneID 29992) | 0.09 | inactive
PILRA (GeneID 29992) | 0.36 | inactive
CASC3 (GeneID 22794) | -0.37 | inactive
CASC3 (GeneID 22794) | 1.47 | inactive
CASC3 (GeneID 22794) | -1.06 | inactive
CASC3 (GeneID 22794) | -0.2 | inactive
GABRB1 (GeneID 2560) | -0.31 | inactive
GABRB1 (GeneID 2560) | -0.08 | inactive
GABRB1 (GeneID 2560) | -0.66 | inactive
GABRB1 (GeneID 2560) | -0.25 | inactive
NAALADL1 (GeneID 10004) | 1.03 | inactive
NAALADL1 (GeneID 10004) | 1.35 | inactive
NAALADL1 (GeneID 10004) | -0.77 | inactive
NAALADL1 (GeneID 10004) | -0.7 | inactive

A portion from the list above:
gene | TNF reporter robust z-score | outcome
CA6 (GeneID 765) | 0.72 | inactive
PDHA1 (GeneID 5160) | -1.25 | inactive
PDHA1 (GeneID 5160) | -0.25 | inactive
